PubChem BioAssay AID504804, Drosophila RNAi Screening Center | 2011
Aim: 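dsRNAs that improve Kc cell survival under doxorubicin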 (primary screen). System: Drosophila Kc cells. Reagents: long dsRNA against Drosophila genes, 0.5 µg dsRNA per well. Timing: 96 h (48 h knock-down, then 48 h drug). Conditions: doxorubicin 5 µg/ml for 48 h, added 48 h after dsRNA. Detection: 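Viability measured as cellular ATP by luminescence after 48 h knock-down then 48 h doxorubicin at 5 µg/ml; unnormalised plate counts for each replicate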. Reading the numbers: raw ATP luminescence: higher = more viable cells, protection from doxorubicin. Active means: 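Active when both duplicate wells lie at least 2 SD above the plate mean and protection is confirmed by rescreening and independent dsRNAs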.
In all, the deposit lists about 19,000 reagents; shown is an unselected part of those that have a named target and a result. Of all reagents, 47 (0.25%) are marked active. 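Signals are raw, not normalised; exact z-scores behind calls not deposited; actives needed confirmation, so some wells reaching 2 SD are inactive.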 A number with no mark means an inactive call. Names joined by + are all predicted targets of the reagent.

| gene knocked down | dsRNA | SD above plate mean | raw ATP luminescence, replicate 1 | raw ATP luminescence, replicate 2 |
| --- | --- | --- | --- | --- |
| pnt | DRSC17028 | – | 26290 | 21450 |
| CG11018 | DRSC06024 | – | 45417 | 59923 |
| Jon99Ci | DRSC16860 | – | 45230 | 23730 |
| Ddc | DRSC03314 | – | 64793 | 68877 |
| CG34461 | DRSC10767 | – | 77060 | 76250 |
| TwdlW | DRSC15540 | – | 73040 | 72760 |
| mthl3 | DRSC06997 | – | 55990 | 68757 |
| RpS20 | DRSC16836 | – | 40320 | 41710 |
| CG6094 | DRSC02927 | – | 86587 | 74340 |
| CG42457 (retired record) + cpo | DRSC13273 | – | 1.71e5 | 1.77e5 |
| CG42457 (retired record) + cpo | DRSC14503 | – | 17300 | 15710 |
| CG42457 (retired record) + cpo | DRSC15327 | – | 15600 | 17590 |
| CG42457 (retired record) + cpo | DRSC16926 | – | 16440 | 18150 |
| Skadu | DRSC01490 | – | 2.79e5 | 2.62e5 |
| et | DRSC19582 | – | 3.17e5 | 3.11e5 |
| ric8b + ric8a | DRSC18104 | – | 3.60e5 | 3.48e5 |
| fzr | DRSC18781 | – | 46260 | 62960 |
| CG7544 | DRSC07023 | – | 2.22e5 | 2.06e5 |
| Mst87F | DRSC16747 | – | 79450 | 67490 |
| Ythdf | DRSC16036 | – | 76730 | 58530 |
| Ythdf | DRSC16037 | – | 84110 | 65100 |
| Max | DRSC11218 | – | 24873 | 22417 |
| CG17024 (retired record) | DRSC02562 | – | 93040 | 75730 |
| CG42544 | DRSC12451 | – | 82300 | 55997 |
| CG7650 | DRSC10898 | – | 42523 | 38640 |
| Hip1 | DRSC09812 | – | 38803 | 43107 |
| CG8520 | DRSC07206 | – | 66180 | 53400 |
| CG11050 | DRSC02125 | – | 1.09e5 | 65607 |
| Theg | DRSC16023 | – | 43890 | 53110 |
| CG17261 | DRSC00498 | – | 26270 | 27893 |
| eRF3 | DRSC03322 | – | 73627 | 87713 |
| COX2 (retired record) | DRSC21276 | – | 3.49e5 | 2.82e5 |
| Dpit47 | DRSC04985 | – | 47930 | 80193 |
| CG43740 | DRSC17994 | – | 3.30e5 | 2.87e5 |
| drongo | DRSC00814 | – | 1.13e5 | 57463 |
| Set8 | DRSC15473 | – | 58500 | 27837 |
| Ugt36D1 | DRSC02600 | – | 90543 | 72620 |
| pont | DRSC17029 | – | 45550 | 57330 |
| Hand | DRSC02656 | – | 46783 | 89610 |
| Vps51 | DRSC06519 | – | 62840 | 66177 |
| rdgC | DRSC11387 | – | 51927 | 54200 |
| nompB | DRSC03701 | – | 34243 | 37713 |
| nompB | DRSC03731 | – | 48533 | 56613 |
| Hil | DRSC05989 | – | 58507 | 59663 |
| osp | DRSC01409 | – | 2.75e5 | 3.11e5 |
| osp | DRSC03585 | – | 99063 | 69617 |
| mRpS34 | DRSC09918 | – | 49583 | 42840 |
| CG12546 + CG14452 | DRSC11709 | – | 53913 | 48623 |
| sm | DRSC05795 | – | 1.56e5 | 1.40e5 |
| sm | DRSC07686 | – | 44357 | 59363 |
| viaf | DRSC10326 | – | 37980 | 36763 |
| heix | DRSC03542 | – | 1.06e5 | 54883 |
| CG15528 | DRSC15065 | at least 2 SD above plate mean | 73370 | 73770 |
| CarT | DRSC03196 | – | 71600 | 74410 |
| scrib | DRSC13774 | – | 1.73e5 | 1.73e5 |
| scrib | DRSC17051 | – | 43880 | 56300 |
| CG13984 | DRSC02316 | – | 26263 | 27833 |

Limited to “raw ATP luminescence, replicate 2”, for 8 of the entries above:
Mst87F [DRSC16747] = 67490
Ythdf [DRSC16036] = 58530
Ythdf [DRSC16037] = 65100
Max [DRSC11218] = 22417
CG17024 (retired record) [DRSC02562] = 75730
CG42544 [DRSC12451] = 55997
CG7650 [DRSC10898] = 38640
Hip1 [DRSC09812] = 43107
